Literature values, collected in patent publication US20250082794A1, “ANTIMONY CHELATES FOR TARGETED AUGER THERAPY AND IMAGING DIAGNOSTICS” (Wisconsin Alumni Research Foundation, priority 2023, published 2025).
At least one structure is not confirmed: it was looked up by name or label, or the drawing left a doubt.

Settings: cited from earlier work

Compound: [OH][Sb]([OH])([OH])([OH])[OH] [Sb(OH)5]
- hydrolysis constant: 2.72
